In PubChem BioAssay AID493014 (National Center for Advancing Translational Sciences (NCATS), 2011):
Screen size: about 340,000 compounds; about 170 (0.05%) were called active. The shares of active, inactive and inconclusive entries below differ from those in the screen. Calls follow the shape of the dose curve; as a rule, active = well fitted inhibition curve with a large enough effect in the signal ratio, with a control signal flat (not every such curve was filed as active); inconclusive = small, poorly fitted or top-dose-only effect, or effect the other way, or a change in a side signal; inactive = flat fitted curve, though single readings scatter; the % refers to the signal ratio. Where the call is inconclusive, the potency comes from a doubtful curve fit.

assay: qHTS Assay to Find Inhibitors of Chronic Active B-Cell Receptor Signaling; conditions: ABC-DLBCL IkBa-CBG/CBR reporter, luminescence ratio (green luciferase fused to IkBa over red control in TMD8 lymphoma cells), 4 h; activity change, negative = inhibition: at 46.1 µM (top of the series);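 as to activity change, negative = inhibition: plate controls were basal doxycycline-induced cells for no effect and cells given 10 µM MG132 for full effect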
Procedure, shortened: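 TMD8 ABC-DLBCL cells carrying doxycycline-inducible green luciferase fused to IkappaBalpha plus unfused red luciferase were exposed to compounds (up to 46 uM) for 4 hrs at 37C. Activity came from the overlap-corrected green/red luminescence ratio.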
Potency is read from the fitted curve at half-maximal effect.

Compound | Potency | activity change, negative = inhibition
CCOC(=O)C1CCN(C(=O)COc2ccc(Cl)cc2)CC1 | inconclusive: 3.98 µM [falling, partial curve] | 
CCC(=O)NC(=S)Nc1ccc(NC(=O)c2ccc(Br)o2)cc1 |  | inconclusive: -0.581%
COc1ccc(F)c(CN2CCCC(CNS(=O)(=O)c3cccc4cccnc34)C2)c1 (stereo not given) |  | inactive
COc1cc(/C=N/NC(=O)c2cc[n+]([O-])cc2)ccc1O |  | inactive
COc1cc(C2NC(=O)NC(c3ccccc3)=C2C(C)=O)cc(Cl)c1OCC(=O)O (stereo not given) | inconclusive: 25.1 µM [rising, partial curve, poor fit] | 
CCOCCCn1c(SC(C)C(=O)NCC2CCCO2)nc2sc(C)c(C)c2c1=O (stereo not given) |  | inactive
CCc1c(C)[nH]n(CCC#N)c1=O |  | inconclusive: 6.64%
N#Cc1c(SC(C(=O)O)c2ccccc2)nc2c(c1-c1cccs1)CCCC2 (stereo not given) | inconclusive: 17.8 µM [rising, partial curve, poor fit] | 
CCN(CC)S(=O)(=O)c1cccc(NC(=O)CCSc2ccc(Cl)cc2)c1 |  | inconclusive: 1.35%
COc1ccc(C(NC(C)=O)c2nccc3cc(OC)c(OC)cc23)cc1OC (stereo not given) |  | inactive
CCNc1nc(C#N)nc2c1ncn2-c1cc(F)cc(F)c1 |  | inconclusive: 2.05%
CCN1C(=O)c2cccc3c(S(=O)(=O)N(C(=O)c4cccnc4)c4ccc(OC)cc4)ccc1c23 |  | inconclusive: 0.225%
COc1ccc(C(CCN2CCN(c3ccccc3)CC2)c2c(OC)cc(OC)c3c(-c4ccccc4)cc(=O)oc23)cc1 (stereo not given) | inconclusive: 3.55 µM [falling, single point] | 
CC(C)(C)C(=O)Nc1nc2c(s1)COc1ccccc1-2 | inconclusive: 5.17 µM [rising, full curve, poor fit] | 
Cc1ccccc1OCC(=O)N(Cc1cccs1)C1CCS(=O)(=O)C1 (stereo not given) | inconclusive: 8.91 µM [falling, partial curve] | 
CCOc1ccc(-c2nn3c(-c4ccccc4)nnc3s2)cc1 |  | inconclusive: 7.35%
COc1cc(/C=C/c2ccc3cccc(O)c3n2)ccc1O | inconclusive: 28.2 µM [falling, single point] | 
O=C(Cc1ccc(Cl)cc1Cl)Nc1ccc(OC(F)F)c(Cl)c1 |  | inconclusive: 8.82%
Clc1ccc(C(c2ccccc2Cl)C(Cl)Cl)cc1 (stereo not given) | inconclusive: 16.4 µM [rising, single point] | 
CCOC(=O)c1nn(-c2cccc(Cl)c2)c(C)c1C(C)=O |  | inconclusive: -8.91%
O=C(Nc1cc2c(cc1Cl)OCCO2)c1ccco1 |  | inconclusive: 4.56%
CCN(CC)S(=O)(=O)c1ccc(N2CCOCC2)c(NC(=O)C23CC4CC(CC(Cl)(C4)C2)C3)c1 |  | inconclusive: -0.568%
Cc1ccc(-n2c(-c3ccco3)nc3nc4ccccc4nc32)cc1 |  | inactive
Cc1oc(S(=O)(=O)N2CCCCC2)cc1NC(=O)Nc1ccc(Cl)cc1 |  | inactive
COc1ccc(C(=O)O)cc1S(=O)(=O)N(CCc1ccccc1)Cc1ccccc1 |  | inconclusive: -1.77%
Cc1cccn2c(=O)nc(SCC(=O)NCCc3ccccc3)nc12 |  | inconclusive: 15.8%
O=c1[nH]c(CSc2nnc(COc3ccccc3)n2-c2ccccc2)nc2ccccc12 |  | inconclusive: 1.54%

Compound | Potency | activity change, negative = inhibition
O=S(=O)(NC1c2cccc3cccc(c23)C1Sc1ncccn1)c1ccccc1 (stereo not given) |  | inactive
COc1ccc(CC(=O)Nc2sc(Cc3ccccc3)c(C)c2C(N)=O)cc1 |  | inconclusive: -3.23%
O=C(Nc1nc2c(Cl)ccc(Cl)c2s1)c1ccco1 | inconclusive: 0.326 µM [rising, full curve, poor fit] | 
CCC(=O)Nc1cc2c3c(c1)CCC(=O)N3CCC2 |  | inactive
COc1ccc(N/C=C(/C(C)=O)c2ccccc2)cc1 |  | inconclusive: 5.78%
O=C(N/N=C/c1ccccc1[N+](=O)[O-])c1ccc(COc2ccccc2-c2ccccc2)cc1 |  | inconclusive: 9.6%
O=S(=O)(c1ccc2ccccc2c1)N1CCN(C(=S)Nc2ccc(F)c(Cl)c2)CC1 |  | inactive
O=C(N/N=C\C=C\c1ccc2c(c1)OCO2)C1COc2ccccc2O1 (stereo not given) |  | inactive
Clc1cccc(-n2ncc3c(N4CCN(Cc5ccccc5)CC4)ncnc32)c1 |  | inconclusive: 17.1%
O=C(CSc1nc2ccccc2c(=O)[nH]1)c1ccccc1 | inconclusive: 16.4 µM [falling, partial curve] | 
Cc1ccc(NC(=O)c2ccc(F)c(S(=O)(=O)N3CCOCC3)c2)cc1F |  | inactive
CCOC(=O)c1cc2occc2n1CCCN1C(=O)c2ccccc2C1=O | inconclusive: 2.06 µM [rising, partial curve, poor fit] | 
Cc1ccnc(SCC(=O)c2ccc(Br)s2)n1 |  | inconclusive: 0.485%
C/C(Cl)=C/CSc1nc2c(c(=O)[nH]c(=O)n2C)n1C(C)C | inconclusive: 2.82 µM [falling, partial curve, poor fit] | 
CCCC(=O)c1ccc(N2CCCC2)c(F)c1 | inconclusive: 6.51 µM [rising, full curve, poor fit] | 
COc1cccc(-c2nnc(NC(=O)c3cccc(F)c3)o2)c1 | inconclusive: 3.55 µM [rising, partial curve, poor fit] | 
Cc1ccc(NC(=O)Nc2cc(S(C)(=O)=O)ccc2Cl)cc1 |  | inconclusive: 11%
C[C@H](CO)N1C[C@H](C)[C@@H](CN(C)S(=O)(=O)c2ccccc2)Oc2ccc(NC(=O)CCC(F)(F)F)cc2C1=O |  | inconclusive: 0.821%
Cc1cccnc1NC(=O)c1cc2ccccc2oc1=O | inconclusive: 4.47 µM [falling, partial curve] | 
COC(=O)C1=C(COc2ccccc2)NC(=O)NC1c1ccc(Br)cc1 (stereo not given) |  | inconclusive: -8.4%
Cc1cc(N(CC(=O)O)S(C)(=O)=O)ccc1Br |  | inconclusive: 6.97%
CC(=O)OCC(=O)N1N=C(c2ccc3ccccc3c2)CC1c1ccccc1 (stereo not given) | inconclusive: 12.6 µM [falling, partial curve] | 
Clc1cccc(OCCn2ccnc2)c1 |  | inactive
CCOc1ccc(C)cc1S(=O)(=O)n1ccnc1 |  | inconclusive: -0.0217%
O=C(NCc1ccc(F)cc1)C1CCCN(C(=O)NCc2ccccc2)C1 (stereo not given) |  | inconclusive: 9.75%
CNC(=S)N(Cc1ccc(OC)cc1)C1CC(=O)N(c2ccc(OC)cc2)C1=O (stereo not given) |  | inactive
CCn1c(Cc2ccc(OC)cc2)nnc1SCC(=O)Nc1cccc(C(=O)OC)c1 |  | inconclusive: -0.25%

Compound | Potency | activity change, negative = inhibition
Cc1ccc(-c2ccc(/C=N\NC(=O)c3cc4c(ccc5ccccc54)o3)o2)cc1[N+](=O)[O-] |  | inactive
O=C(Nc1ccc(Cl)c(S(=O)(=O)N2CCCC2)c1)c1nn(CCO)c(=O)c2ccccc12 |  | inactive
COc1ccc(C(=O)Nc2ncc3c(n2)-c2ccccc2CC3)cc1 |  | inconclusive: -9.36%
Cc1ccc(S(=O)(=O)N2CCCN(C)CC2)cc1 |  | inconclusive: 0.309%
C=CCOc1cccc(C(=O)Nc2ncn[nH]2)c1 |  | inactive
CC(C)OC1(c2ccccc2)OC(=O)c2ccccc21 (stereo not given) |  | inconclusive: 3.11%
Cc1ccc(S(=O)(=O)NCCC(=O)NCCCSc2ccccc2)cc1 | inconclusive: 32.6 µM [falling, partial curve, poor fit] | 
CSc1nsc(SCC(=O)Nc2nc3ccccc3s2)n1 |  | inconclusive: -14.9%
CC(=O)c1ccc(N2CCN(C(=S)Nc3cccc(F)c3)CC2)cc1 |  | inactive
CCn1c(C)c(C)c2cc(C(=O)N3CCc4ccccc4C3)ccc21 | inconclusive: 8.91 µM [falling, partial curve] | 
Cc1c(Cl)cccc1N1CC(C(=O)Nc2nccs2)CC1=O (stereo not given) | inconclusive: 29.1 µM [falling, single point] | 
S=C(NCc1cccs1)Nc1cccc(Cl)c1Cl |  | inconclusive: 14.7%
C=CCOc1cccc(C2c3c(oc4ccc(F)cc4c3=O)C(=O)N2CCCN2CCOCC2)c1 (stereo not given) |  | inconclusive: 0.854%
O=C1CN(C(=O)OCc2ccccc2)c2ccccc2N1 | inconclusive: 31.6 µM [rising, single point] | 
CCCCNCC1C(Oc2ccc(Cl)cc2)C(=O)N1c1ccccc1C (stereo not given) | inconclusive: 35.5 µM [falling, single point] | 
CC1CCN(c2c([N+](=O)[O-])c(=O)oc3ccccc23)CC1 | inconclusive: 29.1 µM [falling, partial curve, poor fit] | 
O=C(Nc1nc2ccccc2n1CCN1CCOCC1)c1ccc(Cl)cc1 |  | inactive
CN(C)/N=C/c1ccc(/C=N/NC(N)=S)o1 |  | inconclusive: 2.5%
COCCn1c(SCC(=O)c2ccc(Cl)cc2)nnc1C(C)C | inconclusive: 22.4 µM [falling, partial curve, poor fit] | 
O=C(Nc1cccc(NC(=O)c2ccco2)c1)c1ccc2c(c1)OCO2 |  | inconclusive: -16.4%
O=C(O)c1cc(N/N=C2/CC(c3ccccc3)Oc3ccccc32)ccc1Cl (stereo not given) |  | inconclusive: -25.9%
CN1CCN(C(=S)Nc2cccc(S(=O)(=O)N(C)C)c2)CC1 |  | inactive
CCc1c(C(=O)N/N=C/c2sccc2C)nnn1-c1nonc1N |  | inconclusive: -17.5%
CC(NC(=O)CNC(=O)c1ccco1)c1ccc(S(N)(=O)=O)cc1 (stereo not given) |  | inconclusive: -4.81%
C=CCOc1ccc(C2C(C(=O)c3ccco3)=C(O)C(=O)N2c2nnc(C)s2)cc1 (stereo not given) |  | inconclusive: 9.44%
Cc1cc(C(F)(F)F)nn1C(=O)c1cccnc1Cl | inconclusive: 6.51 µM [falling, single point] | 

A second format for 5 compounds above.

| Compound | Potency | activity change, negative = inhibition |
| --- | --- | --- |
| CCN(CC)S(=O)(=O)c1ccc(N2CCOCC2)c(NC(=O)C23CC4CC(CC(Cl)(C4)C2)C3)c1 |  | inconclusive: -0.568% |
| Cc1ccc(-n2c(-c3ccco3)nc3nc4ccccc4nc32)cc1 |  | inactive |
| Cc1oc(S(=O)(=O)N2CCCCC2)cc1NC(=O)Nc1ccc(Cl)cc1 |  | inactive |
| COc1ccc(C(=O)O)cc1S(=O)(=O)N(CCc1ccccc1)Cc1ccccc1 |  | inconclusive: -1.77% |
| Cc1cccn2c(=O)nc(SCC(=O)NCCc3ccccc3)nc12 |  | inconclusive: 15.8% |
